Results are given in words; binding and its absence hold for the method and conditions named. Binding can be weak; no strength is given.

This test has as its target HLA-A*0201 (human). The test is described as follows: UV-ligand exchange; anti-b2m ELISA. For orientation: ELISA stands for enzyme-linked immunosorbent assay.

B1: CSE1-001 (peptide)
peptide: ALFPHLLQPV
B1: the binding result is “binds”.

B2: RAD54B-001 (peptide)
peptide: SLYKGLLSV
Turning to B2, the binding entry was “binds”.

B3: TANC2-001 (peptide)
peptide: ALMDKEGLTAL
Consider B3, for which the binding result is “binds”.

B4: HUWE1-001 (peptide)
peptide: RLLGPSAAADILQL
For B4, the binding entry is recorded as “binds”.

B5: LAMC2-001 (peptide)
peptide: RLLDSVSRL
For B5, the binding entry is given as “binds”.

B6: PCNXL3-001 (peptide)
peptide: GVLENIFGV
For the molecule B6, the binding entry was “binds”.

B7: AKR-001 (peptide)
peptide: YLIHFPVSV
Turning to B7, the binding result is reported as “binds”.

B8: SEC61G-001 (peptide)
peptide: AIMGFIGFFV
For B8, the binding result is “binds”.

B9: COL12A1-002 (peptide)
peptide: FLVDGSWSV
Consider B9, for which the binding result is reported as “binds”.

These data come from patent publication US20170319675A1.
